Test results: article doi:10.1101/2023.12.08.570772

Tests used:
[1] = target: T1, GFP-tagged MAGEC2 WT (human) (UniProt Q9UBF1); assay: affinity purification with mass spectrometry
T1 sequence: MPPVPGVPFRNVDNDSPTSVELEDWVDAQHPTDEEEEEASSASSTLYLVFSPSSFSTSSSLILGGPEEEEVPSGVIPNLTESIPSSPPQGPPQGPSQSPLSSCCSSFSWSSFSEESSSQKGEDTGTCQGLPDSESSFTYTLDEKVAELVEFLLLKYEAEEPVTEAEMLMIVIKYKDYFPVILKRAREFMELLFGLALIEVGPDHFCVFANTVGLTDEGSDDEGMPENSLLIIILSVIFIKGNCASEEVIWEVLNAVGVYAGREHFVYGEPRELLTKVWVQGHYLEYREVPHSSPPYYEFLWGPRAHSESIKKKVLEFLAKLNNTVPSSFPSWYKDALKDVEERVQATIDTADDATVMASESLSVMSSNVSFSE

[2] = target: T2, GFP-tagged MAGEC2 L318D (human) (UniProt Q9UBF1); assay: affinity purification with mass spectrometry
T2 sequence: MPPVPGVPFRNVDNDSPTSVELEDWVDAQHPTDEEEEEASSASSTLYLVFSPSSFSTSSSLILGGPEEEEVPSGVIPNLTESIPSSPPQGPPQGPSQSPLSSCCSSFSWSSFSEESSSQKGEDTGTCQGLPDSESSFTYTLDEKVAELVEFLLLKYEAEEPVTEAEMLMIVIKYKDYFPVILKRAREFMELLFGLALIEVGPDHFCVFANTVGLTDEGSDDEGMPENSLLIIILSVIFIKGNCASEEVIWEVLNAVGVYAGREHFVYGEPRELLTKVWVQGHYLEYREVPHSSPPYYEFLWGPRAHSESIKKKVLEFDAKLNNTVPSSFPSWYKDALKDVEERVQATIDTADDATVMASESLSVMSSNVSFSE

B1: MAGEB2 (protein, UniProt O15479 1-319)
chain: MPRGQKSKLRAREKRRKARDETRGLNVPQVTEAEEEEAPCCSSSVSGGAASSSPAAGIPQEPQRAPTTAAAAAAGVSSTKSKKGAKSHQGEKNASSSQASTSTKSPSEDPLTRKSGSLVQFLLYKYKIKKSVTKGEMLKIVGKRFREHFPEILKKASEGLSVVFGLELNKVNPNGHTYTFIDKVDLTDEESLLSSWDFPRRKLLMPLLGVIFLNGNSATEEEIWEFLNMLGVYDGEEHSVFGEPWKLITKDLVQEKYLEYKQVPSSDPPRFQFLWGPRAYAETSKMKVLEFLAKVNGTTPCAFPTHYEEALKDEEKAGV
binding [1]: binds
binding [2]: no binding

No constants are given. Whether binding was seen depends on the method and setting. In cells and extracts the contact can be indirect. These calls come from enrichment with a bait or labelling near it, and not all partners need be listed. For some assays here: A no says only that the protein was not detected with the bait. Tags and fused reporters may be left off the sequences shown.
